# Reference: PubChem BioAssay AID504774 (Drosophila RNAi Screening Center, 2011)
# Assay: 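Genes required for cells to withstand methyl methanesulphonate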 (primary screen)
# Cells: Drosophila Kc167 cells
# Knock-down reagent: long dsRNA against Drosophila genes, about 0.25 µg dsRNA per well
# Duration: about 6 days: 3 days knock-down, then 3 days with or without MMS
# Conditions: methyl methanesulphonate 0.004% (w/v) for 3 days after knock-down
# Measured: 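Viability in wells given MMS, read as ATP luminescence, normalised by quantiles plate by plate and averaged across replicates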
# Scale: mean viability with MMS and viability with MMS: higher = more surviving cells after MMS
# In all, the deposit lists about 23,000 reagents; this is a random part of those that have a named target and a result. 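Values are quantile-normalised luminescence on an arbitrary scale; higher means more cells surviving MMS.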 A plus sign joins genes that one reagent is predicted to hit.
Gene,amplicon,mean viability with MMS,"viability with MMS, replicate 1","viability with MMS, replicate 2"
CG31717,DRSC01121,3.88e6,4.70e6,3.89e6
bark,DRSC00635,3.57e6,4.06e6,4.02e6
Or71a,DRSC11244,3.44e6,3.94e6,3.83e6
Orai,DRSC05684,3.44e6,3.89e6,3.93e6
Orai,DRSC22061,3.64e6,4.13e6,4.08e6
ninaD,DRSC02886,3.45e6,3.90e6,3.93e6
CG13055,DRSC09936,3.70e6,4.22e6,4.11e6
CG6891,DRSC20016,3.80e6,4.23e6,4.43e6
Rcd2,DRSC11756,3.49e6,3.93e6,3.96e6
Fie,DRSC08158,3.54e6,4.08e6,3.94e6
Dci,DRSC08360,1.82e6,4.13e6,
CG42570,DRSC09391,3.45e6,4.05e6,3.82e6
CG10163,DRSC09710,3.50e6,4.01e6,3.93e6
Mst84Dd,DRSC12600,3.47e6,3.81e6,4.08e6
CG34357,DRSC12211,3.54e6,3.98e6,4.05e6
CG34357,DRSC12238,3.27e6,3.64e6,3.76e6
CG34357,DRSC12334,3.64e6,4.00e6,4.22e6
CG34357,DRSC23031,3.62e6,4.15e6,4.06e6
DMAP1,DRSC06044,3.03e6,3.62e6,3.63e6
CG7691,DRSC16287,3.66e6,4.25e6,4.04e6
Klp67A + CG34456,DRSC10420,3.52e6,4.31e6,3.68e6
Pect,DRSC02867,3.72e6,4.36e6,4.12e6
Pect,DRSC02868,3.28e6,3.68e6,3.76e6
Orc4,DRSC04634,3.16e6,2.91e6,3.54e6
Ir52b,DRSC06263,3.46e6,4.04e6,3.99e6
shps,DRSC14614,3.64e6,4.19e6,4.07e6
ImpE1,DRSC11195,3.73e6,4.10e6,4.35e6
ImpE1,DRSC11196,3.47e6,3.91e6,3.97e6

Entries above whose target name starts with D or d:
Gene,amplicon,mean viability with MMS,"viability with MMS, replicate 1","viability with MMS, replicate 2"
Dci,DRSC08360,1.82e6,4.13e6,
DMAP1,DRSC06044,3.03e6,3.62e6,3.63e6
